doi:10.1101/2023.12.01.569363
These are yes or no findings as the source states them, for the method shown. For some assays here: In cells and extracts the contact can be indirect. Some binding calls cover weakened binding; strength is not graded here.

Amino acid sequences for entries named in this document (tags omitted).
UniProt P11166: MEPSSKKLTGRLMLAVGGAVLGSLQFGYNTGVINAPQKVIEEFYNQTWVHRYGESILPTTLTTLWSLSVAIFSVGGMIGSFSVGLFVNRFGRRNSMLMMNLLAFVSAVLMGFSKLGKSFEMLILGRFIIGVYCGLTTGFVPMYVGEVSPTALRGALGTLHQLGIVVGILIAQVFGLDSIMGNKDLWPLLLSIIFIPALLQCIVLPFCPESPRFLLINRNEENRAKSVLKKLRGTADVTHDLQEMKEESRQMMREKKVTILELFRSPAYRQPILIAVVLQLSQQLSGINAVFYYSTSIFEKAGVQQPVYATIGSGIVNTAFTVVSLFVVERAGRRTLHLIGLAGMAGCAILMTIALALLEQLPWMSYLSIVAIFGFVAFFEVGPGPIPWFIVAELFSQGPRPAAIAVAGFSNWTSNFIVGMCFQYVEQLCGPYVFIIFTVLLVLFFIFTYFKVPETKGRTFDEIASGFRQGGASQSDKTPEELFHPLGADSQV

Key:
PURA (human) [1] = biological target: T1, PURA (human) (UniProt Q00577); assay: co-IP
T1 sequence: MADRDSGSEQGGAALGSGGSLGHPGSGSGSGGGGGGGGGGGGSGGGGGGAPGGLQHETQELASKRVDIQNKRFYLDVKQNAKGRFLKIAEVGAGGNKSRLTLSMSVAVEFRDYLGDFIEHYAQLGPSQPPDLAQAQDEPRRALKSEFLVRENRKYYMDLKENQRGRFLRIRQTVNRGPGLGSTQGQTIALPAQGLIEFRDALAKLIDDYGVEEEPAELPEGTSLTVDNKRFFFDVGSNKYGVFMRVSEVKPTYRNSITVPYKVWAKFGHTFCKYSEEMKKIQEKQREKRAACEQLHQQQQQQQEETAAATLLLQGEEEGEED

PURA (human) [2] = biological target: T1, PURA (human); assay: far-Western, overlay or dot blot

binding (PURA (human) [1]): binds
binding (PURA (human) [2]): binds
Substance: glucose transporter 1 (from UniProt P11166 1-492)
